Primary screen of a compound library

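Whole-parasite assay of Trypanosoma brucei over 72 hours; the read-out is not stated. Compounds at 30 µM. Higher reads as stronger inhibition (inferred: compounds with an IC50 in retests scored well above the rest). Values scatter widely below zero; nearly all retest evidence comes from the higher of the two concentrations used. Of about 64,000 compounds tested this way, about 940 (1.5%) reached 50% or more in at least one test.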

Results are given as percent effect. The record does not define 0% and 100%; most values in the screen are far below 50% and negative numbers occur (in some assays of this library far below -100). The compounds are a random part of those screened.

* O=C(O)C(F)(F)F.O=C(O)C(F)(F)F.[H][C@@]12CN(Cc3cccs3)CCC[C@]1(C(=O)OCC)CN(C(C)C)C2 : -11.59%
* CCN1CCN(S(=O)(=O)c2cnc(NC(C)=O)s2)CC1 : -4.578%
* Cn1cc(C[C@H]2[C@@H](O)CCN2C(=O)C2CC=CC2)cn1 : 6.903%
* O=C(O)C(F)(F)F.[H][C@@]12CCCO[C@]1([H])[C@@H](OCC(=O)N(C)C)CN2Cc1c(C)noc1C : -9.943%
* Cc1nc(C2CCCC2)sc1C(N)=O : -20.18%
* Cc1nc(N(C)C)cc(C2(C)CCCNC2)n1 (configuration not stated) : -6.461%
* Cc1cc(C)n(C2CCCN(C(=O)c3cnc4onc(C)c4c3)C2)n1 (configuration not stated) : -7.22%
* N[C@H]1CN(S(=O)(=O)N2CCCCCC2)C[C@@H]1c1ccccc1 : -13.04%
* CCN(CC1CCOC1)C(=O)Nc1ccc(OCC(F)(F)F)nc1 (configuration not stated) : 5.009%
* COc1ccc(CN(C(=O)C2CCCOC2)c2ccncc2)cc1 (configuration not stated) : -17.18%
* CC(C)NC(=O)c1nn(C)c(NC(=O)Cc2ccccc2)c1F : -5.209%
* c1ccc(-c2nc(CCNCc3ccccn3)co2)cc1 : 8.513%
* O=C(O)C(F)(F)F.[H][C@@]12CCN(C3CCCC3)C[C@@]1([H])[C@H](C(=O)NC1CCC1)CCO2 : -11.29%
* O=C(O)C(F)(F)F.O=C1COC2(CCN(Cc3ccoc3)CC2)CN1c1ccccc1 : -9.648%
* CC(c1ccccc1)N(C)C(=O)CN1CCCc2cccc(F)c21 (configuration not stated) : -20.1%
* Cc1cnn(C2CCCN(C(=O)c3cc(-c4cccs4)n[nH]3)C2)c1 (configuration not stated) : -50.34%
* CN(C)c1nc2c(c(N3CCCC3)n1)CCN(C(=O)c1ccc[nH]1)CC2 : -13.09%
* COc1cccc(-c2cc(NCCN(C)C)nc3[nH]ccc23)n1 : 96.05%
* CCOc1ccccc1CNC(=O)NCC(c1cnn(C)c1)N(C)C (configuration not stated) : 13%
* COc1cc(OC)c2c(=O)oc(CC(O)CC(C)=O)cc2c1 (configuration not stated) : -66.52%
* O=C(NC1CCCC1)c1nc(COc2ccc3c(c2)OCO3)no1 : 22.26%
* CN1CCCN(C(=O)NCc2csc(Br)c2)CC1 : 4.633%
* O=C(Cn1ncc(N2CCCC2)cc1=O)Nc1ccc2nccnc2c1 : -9.715%
* CC(CN1CCCC1)C(=O)N1CCC(c2nccn2CC2CC2)CC1 (configuration not stated) : -3.37%
* CNCC(=O)N1CC(c2cc(Nc3ncccn3)nc(C)n2)C1.Cl : -14.51%
* O=C(NCc1nccn1CCc1ccccc1)NCC1CCC1 : -19.19%
* O=C(NCC1(CO)CC1)c1ccccc1C(F)(F)F : -9.887%
* O=C(O)C(F)(F)F.[H][C@]12CCCC(OCc3cccnc3)[C@@]1([H])CN(C(=O)COC)C2 (some centres not stated) : -5.776%
* COCCCNC1CCCN(c2ccc(C)nn2)C1 (configuration not stated) : -12.13%
* COc1c(CNC2CCCc3ccccc32)c(C(C)C)nn1C (configuration not stated) : 27.04%
* Cn1c(CCNC(=O)Nc2cn[nH]c2)nc2ccc(F)cc21 : -39.78%
* Cc1cc(N2CCC(NC(=O)CCc3ccco3)CC2)nc(C)n1 : -18.94%
* CCC(C)(O)CNC(=O)Nc1ccc(C)cc1Br (configuration not stated) : -0.6867%
* Cc1cc(C)n(-c2ccc(N3CCC4(CC3)OCCO4)nc2)n1 : -3.853%
* O=C([C@H]1CCCO1)N1CCc2ncnc(NC3CC3)c2CC1 : -29.45%
* COCCn1/c(=N\C(=O)CN(C)S(C)(=O)=O)sc2cc(C)ccc21 : -23.29%
* CCn1nc(CC(C)C)cc1C(=O)NCCn1cccc1 : -28.18%
* Cc1ccc(-c2ncc(CN3CCN(S(N)(=O)=O)CC3)s2)o1 : 2.867%

Some entries from above, unchanged:

Result for O=C(O)C(F)(F)F.[H][C@@]12CCCO[C@]1([H])[C@@H](OCC(=O)N(C)C)CN2Cc1c(C)noc1C was -9.943%.
Result for O=C([C@H]1CCCO1)N1CCc2ncnc(NC3CC3)c2CC1 was -29.45%.
Result for CCC(C)(O)CNC(=O)Nc1ccc(C)cc1Br (configuration not stated) was -0.6867%.
Result for COCCCNC1CCCN(c2ccc(C)nn2)C1 (configuration not stated) was -12.13%.
Result for O=C(O)C(F)(F)F.O=C(O)C(F)(F)F.[H][C@@]12CN(Cc3cccs3)CCC[C@]1(C(=O)OCC)CN(C(C)C)C2 was -11.59%.

The values are deposited in ChEMBL (CHEMBL3988442, “University of Dundee, Small-Polar-MMV Screening Library” (2021)).